These are yes or no findings as the source states them, for the method shown. In cells and extracts the contact can be indirect. Some results given as binding are weak or reduced against the parent protein; the word gives no strength.
T1: Aurora kinase A (human (endogenous in HeLa)) (UniProt O14965)
T1 sequence: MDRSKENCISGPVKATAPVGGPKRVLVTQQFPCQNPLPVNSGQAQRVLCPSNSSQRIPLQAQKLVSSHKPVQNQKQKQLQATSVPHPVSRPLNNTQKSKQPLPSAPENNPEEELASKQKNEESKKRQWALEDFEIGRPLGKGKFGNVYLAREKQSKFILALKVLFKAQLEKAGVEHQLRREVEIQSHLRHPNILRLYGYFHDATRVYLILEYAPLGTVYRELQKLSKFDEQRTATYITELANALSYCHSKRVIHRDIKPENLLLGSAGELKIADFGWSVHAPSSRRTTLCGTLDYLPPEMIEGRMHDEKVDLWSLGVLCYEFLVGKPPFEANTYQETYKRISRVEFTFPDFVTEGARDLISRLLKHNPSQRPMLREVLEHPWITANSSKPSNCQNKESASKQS

The chains behind the UniProt entries cited, without tags or fusion partners. Residues count along the entry.
UniProt P06493: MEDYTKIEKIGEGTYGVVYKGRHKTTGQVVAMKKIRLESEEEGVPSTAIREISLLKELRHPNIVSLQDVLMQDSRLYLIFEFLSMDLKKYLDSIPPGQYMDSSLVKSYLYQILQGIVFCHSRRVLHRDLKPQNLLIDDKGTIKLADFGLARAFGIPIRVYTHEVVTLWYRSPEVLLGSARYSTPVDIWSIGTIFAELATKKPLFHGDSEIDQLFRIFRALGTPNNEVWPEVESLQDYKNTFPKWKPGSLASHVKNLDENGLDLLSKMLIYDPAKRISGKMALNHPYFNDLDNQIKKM
UniProt P30101, residues 25-505: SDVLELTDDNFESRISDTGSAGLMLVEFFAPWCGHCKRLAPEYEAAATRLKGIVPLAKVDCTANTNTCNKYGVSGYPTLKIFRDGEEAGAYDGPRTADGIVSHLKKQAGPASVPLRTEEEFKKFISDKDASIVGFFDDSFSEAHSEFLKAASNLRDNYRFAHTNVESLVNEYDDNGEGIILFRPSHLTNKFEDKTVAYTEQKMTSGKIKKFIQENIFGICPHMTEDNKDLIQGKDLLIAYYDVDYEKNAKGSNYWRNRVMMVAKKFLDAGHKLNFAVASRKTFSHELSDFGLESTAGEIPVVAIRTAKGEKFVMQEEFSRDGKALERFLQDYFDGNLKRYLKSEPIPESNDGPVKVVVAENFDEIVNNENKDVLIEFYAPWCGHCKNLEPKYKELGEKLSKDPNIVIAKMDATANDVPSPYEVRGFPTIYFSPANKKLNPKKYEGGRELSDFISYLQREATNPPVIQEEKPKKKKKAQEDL
UniProt Q9Y266: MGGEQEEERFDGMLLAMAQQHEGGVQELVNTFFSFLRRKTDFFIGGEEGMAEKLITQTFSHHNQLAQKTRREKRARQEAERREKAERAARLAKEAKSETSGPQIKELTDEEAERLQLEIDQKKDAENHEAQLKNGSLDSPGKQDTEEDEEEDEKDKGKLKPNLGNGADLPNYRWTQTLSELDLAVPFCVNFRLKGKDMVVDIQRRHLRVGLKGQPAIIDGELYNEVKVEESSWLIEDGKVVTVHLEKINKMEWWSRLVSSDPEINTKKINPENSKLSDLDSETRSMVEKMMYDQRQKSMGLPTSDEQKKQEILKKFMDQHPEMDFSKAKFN


Columns and labels:
Assay in all cases: co-IP; synchronized HeLa cells lysed in RIPA buffer (50 mM Tris pH 8, 150 mM NaCl, 1% NP-40, 0.5% deoxycholate, 0.1% SDS), lysate adjusted with PBS to 5 mg/mL; antibody (anti-AKA, anti-CDK1 or anti-ERP57) cross-linked to beads (Pierce Co-Immunoprecipitation Kit), 12 h at 4°C; detected by WB with anti-AKA, anti-CDK1 and anti-NUDC
[1] = target: T1, Aurora kinase A (human (endogenous in HeLa))
[2] = target: CDK1 (human (endogenous in HeLa)) (UniProt P06493)
[3] = target: ERP57 (human (endogenous in HeLa)) (UniProt P30101)

| Molecule | binding [1] | binding [2] | binding [3] |
| --- | --- | --- | --- |
| NUDC (from UniProt Q9Y266 1-331) | binds | no binding | no binding |
| Aurora kinase A (enzyme, UniProt O14965 1-403) MDRSKENCISGPVKATAPVGGPKRVLVTQQFPCQNPLPVNSGQAQRVLCPSNSSQRIPLQAQKLVSSHKPVQNQKQKQLQATSVPHPVSRPLNNTQKSKQPLPSAPENNPEEELASKQKNEESKKRQWALEDFEIGRPLGKGKFGNVYLAREKQSKFILALKVLFKAQLEKAGVEHQLRREVEIQSHLRHPNILRLYGYFHDATRVYLILEYAPLGTVYRELQKLSKFDEQRTATYITELANALSYCHSKRVIHRDIKPENLLLGSAGELKIADFGWSVHAPSSRRTTLCGTLDYLPPEMIEGRMHDEKVDLWSLGVLCYEFLVGKPPFEANTYQETYKRISRVEFTFPDFVTEGARDLISRLLKHNPSQRPMLREVLEHPWITANSSKPSNCQNKESASKQS | – | binds | no binding |
